Measured values from the supplement of paper PMC10849652.
Some of the results follow.

The chains behind the UniProt entries cited, without tags or fusion partners. Where a name states a change or a piece, a line headed by the entry shows the natural chain unless it says otherwise.
UniProt P36542: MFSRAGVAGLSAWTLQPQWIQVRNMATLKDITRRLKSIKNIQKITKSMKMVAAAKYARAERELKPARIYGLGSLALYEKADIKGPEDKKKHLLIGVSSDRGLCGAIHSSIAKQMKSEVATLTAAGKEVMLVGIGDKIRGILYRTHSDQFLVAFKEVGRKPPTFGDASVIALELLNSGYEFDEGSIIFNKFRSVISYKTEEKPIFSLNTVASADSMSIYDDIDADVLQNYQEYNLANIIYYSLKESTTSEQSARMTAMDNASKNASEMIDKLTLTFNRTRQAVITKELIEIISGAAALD
UniProt Q9Y6H3: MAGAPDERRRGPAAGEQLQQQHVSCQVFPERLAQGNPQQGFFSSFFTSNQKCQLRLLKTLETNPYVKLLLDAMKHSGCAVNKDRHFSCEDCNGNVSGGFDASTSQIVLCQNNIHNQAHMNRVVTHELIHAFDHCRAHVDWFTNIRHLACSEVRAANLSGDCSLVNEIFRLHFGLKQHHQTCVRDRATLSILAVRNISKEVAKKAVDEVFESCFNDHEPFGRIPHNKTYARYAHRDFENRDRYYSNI
UniProt P25311: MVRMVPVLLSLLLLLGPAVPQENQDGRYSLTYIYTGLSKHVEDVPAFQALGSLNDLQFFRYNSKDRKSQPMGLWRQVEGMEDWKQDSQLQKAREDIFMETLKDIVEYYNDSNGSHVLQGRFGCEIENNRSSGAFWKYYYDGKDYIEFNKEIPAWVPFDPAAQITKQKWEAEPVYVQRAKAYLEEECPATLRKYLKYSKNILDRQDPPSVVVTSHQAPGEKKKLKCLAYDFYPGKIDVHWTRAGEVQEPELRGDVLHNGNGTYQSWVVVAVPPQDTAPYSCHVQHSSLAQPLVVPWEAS
UniProt Q9UBL3, whole entry, looked up: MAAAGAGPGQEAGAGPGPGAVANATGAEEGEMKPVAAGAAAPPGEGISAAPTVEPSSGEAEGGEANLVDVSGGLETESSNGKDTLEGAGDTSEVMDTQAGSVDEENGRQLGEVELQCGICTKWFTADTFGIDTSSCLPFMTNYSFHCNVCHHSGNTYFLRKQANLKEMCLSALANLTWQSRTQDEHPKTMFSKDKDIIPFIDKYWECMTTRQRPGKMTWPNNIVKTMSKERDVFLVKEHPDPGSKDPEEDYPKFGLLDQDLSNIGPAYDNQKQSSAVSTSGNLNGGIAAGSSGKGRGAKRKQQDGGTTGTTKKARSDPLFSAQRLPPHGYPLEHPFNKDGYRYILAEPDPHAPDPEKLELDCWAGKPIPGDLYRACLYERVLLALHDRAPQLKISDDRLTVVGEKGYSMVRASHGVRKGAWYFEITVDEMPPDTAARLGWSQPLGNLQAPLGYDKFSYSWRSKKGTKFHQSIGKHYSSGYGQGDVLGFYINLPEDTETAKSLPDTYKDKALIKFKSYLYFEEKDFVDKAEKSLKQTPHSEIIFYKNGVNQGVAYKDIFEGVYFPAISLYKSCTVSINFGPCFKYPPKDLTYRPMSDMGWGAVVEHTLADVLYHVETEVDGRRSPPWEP
UniProt Q96A05, whole entry, looked up: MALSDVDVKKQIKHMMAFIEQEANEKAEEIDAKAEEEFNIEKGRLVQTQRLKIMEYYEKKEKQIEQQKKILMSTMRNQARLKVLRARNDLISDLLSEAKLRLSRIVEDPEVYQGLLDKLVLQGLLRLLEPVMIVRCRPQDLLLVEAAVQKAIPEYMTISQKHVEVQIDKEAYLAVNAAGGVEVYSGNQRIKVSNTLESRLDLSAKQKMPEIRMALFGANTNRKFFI
UniProt P61769, whole entry, looked up: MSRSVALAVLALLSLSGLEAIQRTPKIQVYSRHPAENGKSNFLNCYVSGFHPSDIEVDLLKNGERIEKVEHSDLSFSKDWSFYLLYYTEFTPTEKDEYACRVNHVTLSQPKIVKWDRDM
UniProt Q9NWX5: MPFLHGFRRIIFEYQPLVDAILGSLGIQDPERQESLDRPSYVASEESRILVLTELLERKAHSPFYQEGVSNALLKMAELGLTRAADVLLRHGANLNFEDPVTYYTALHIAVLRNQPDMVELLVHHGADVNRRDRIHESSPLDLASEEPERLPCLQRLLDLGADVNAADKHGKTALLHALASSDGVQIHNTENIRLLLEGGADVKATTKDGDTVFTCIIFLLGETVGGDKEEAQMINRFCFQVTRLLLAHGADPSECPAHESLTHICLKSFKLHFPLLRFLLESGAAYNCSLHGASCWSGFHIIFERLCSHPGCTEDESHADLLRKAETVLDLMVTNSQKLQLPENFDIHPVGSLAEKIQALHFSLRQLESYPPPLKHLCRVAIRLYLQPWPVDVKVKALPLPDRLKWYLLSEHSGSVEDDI
UniProt P98196: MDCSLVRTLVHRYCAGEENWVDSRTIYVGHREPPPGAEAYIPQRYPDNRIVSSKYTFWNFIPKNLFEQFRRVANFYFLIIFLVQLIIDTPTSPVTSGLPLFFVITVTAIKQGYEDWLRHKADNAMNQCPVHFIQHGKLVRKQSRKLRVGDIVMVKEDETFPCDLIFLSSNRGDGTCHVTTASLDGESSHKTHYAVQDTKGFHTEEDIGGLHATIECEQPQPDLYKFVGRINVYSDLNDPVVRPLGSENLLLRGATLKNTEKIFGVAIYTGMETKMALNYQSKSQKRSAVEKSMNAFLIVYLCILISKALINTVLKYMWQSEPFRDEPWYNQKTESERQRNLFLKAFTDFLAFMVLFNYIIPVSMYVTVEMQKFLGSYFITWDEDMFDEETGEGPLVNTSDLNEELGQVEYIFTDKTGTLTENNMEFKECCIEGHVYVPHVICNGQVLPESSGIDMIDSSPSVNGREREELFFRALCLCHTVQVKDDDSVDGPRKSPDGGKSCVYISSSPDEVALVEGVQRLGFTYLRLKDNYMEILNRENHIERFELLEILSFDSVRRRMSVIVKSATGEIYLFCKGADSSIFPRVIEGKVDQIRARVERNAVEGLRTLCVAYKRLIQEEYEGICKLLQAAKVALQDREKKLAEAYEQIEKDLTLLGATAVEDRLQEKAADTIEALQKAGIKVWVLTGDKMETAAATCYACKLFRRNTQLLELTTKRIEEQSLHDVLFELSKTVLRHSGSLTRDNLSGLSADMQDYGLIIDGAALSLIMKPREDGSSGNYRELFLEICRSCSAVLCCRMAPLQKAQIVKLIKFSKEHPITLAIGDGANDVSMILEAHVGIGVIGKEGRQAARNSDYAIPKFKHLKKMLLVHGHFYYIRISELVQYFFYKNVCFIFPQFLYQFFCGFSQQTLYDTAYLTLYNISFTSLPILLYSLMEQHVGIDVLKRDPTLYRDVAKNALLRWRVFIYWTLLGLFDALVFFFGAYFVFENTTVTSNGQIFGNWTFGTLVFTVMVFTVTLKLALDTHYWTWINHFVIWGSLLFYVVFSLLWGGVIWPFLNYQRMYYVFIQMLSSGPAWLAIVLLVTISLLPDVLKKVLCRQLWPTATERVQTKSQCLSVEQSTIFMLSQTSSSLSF
UniProt P18859: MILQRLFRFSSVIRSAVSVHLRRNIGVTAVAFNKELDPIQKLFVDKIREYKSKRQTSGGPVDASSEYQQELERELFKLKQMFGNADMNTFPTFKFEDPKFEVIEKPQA
UniProt O95352: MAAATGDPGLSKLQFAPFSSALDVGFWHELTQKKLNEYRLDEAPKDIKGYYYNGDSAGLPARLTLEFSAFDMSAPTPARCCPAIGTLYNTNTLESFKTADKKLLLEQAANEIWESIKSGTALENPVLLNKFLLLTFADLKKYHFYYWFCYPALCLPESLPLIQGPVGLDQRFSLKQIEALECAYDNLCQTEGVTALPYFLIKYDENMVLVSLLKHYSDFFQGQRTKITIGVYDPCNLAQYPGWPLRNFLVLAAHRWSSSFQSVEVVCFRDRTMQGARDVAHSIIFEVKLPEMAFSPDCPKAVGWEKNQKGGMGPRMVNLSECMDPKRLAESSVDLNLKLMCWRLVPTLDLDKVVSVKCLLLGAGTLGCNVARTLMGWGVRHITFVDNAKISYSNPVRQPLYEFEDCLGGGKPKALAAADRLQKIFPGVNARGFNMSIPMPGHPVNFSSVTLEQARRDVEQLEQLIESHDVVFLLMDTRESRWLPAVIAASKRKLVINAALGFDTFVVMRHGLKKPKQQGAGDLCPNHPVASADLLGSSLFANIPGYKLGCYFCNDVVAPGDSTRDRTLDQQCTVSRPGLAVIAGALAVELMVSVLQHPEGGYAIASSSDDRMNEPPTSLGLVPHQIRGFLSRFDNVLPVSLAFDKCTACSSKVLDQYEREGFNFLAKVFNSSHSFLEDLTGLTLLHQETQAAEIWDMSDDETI
UniProt Q8WXE1: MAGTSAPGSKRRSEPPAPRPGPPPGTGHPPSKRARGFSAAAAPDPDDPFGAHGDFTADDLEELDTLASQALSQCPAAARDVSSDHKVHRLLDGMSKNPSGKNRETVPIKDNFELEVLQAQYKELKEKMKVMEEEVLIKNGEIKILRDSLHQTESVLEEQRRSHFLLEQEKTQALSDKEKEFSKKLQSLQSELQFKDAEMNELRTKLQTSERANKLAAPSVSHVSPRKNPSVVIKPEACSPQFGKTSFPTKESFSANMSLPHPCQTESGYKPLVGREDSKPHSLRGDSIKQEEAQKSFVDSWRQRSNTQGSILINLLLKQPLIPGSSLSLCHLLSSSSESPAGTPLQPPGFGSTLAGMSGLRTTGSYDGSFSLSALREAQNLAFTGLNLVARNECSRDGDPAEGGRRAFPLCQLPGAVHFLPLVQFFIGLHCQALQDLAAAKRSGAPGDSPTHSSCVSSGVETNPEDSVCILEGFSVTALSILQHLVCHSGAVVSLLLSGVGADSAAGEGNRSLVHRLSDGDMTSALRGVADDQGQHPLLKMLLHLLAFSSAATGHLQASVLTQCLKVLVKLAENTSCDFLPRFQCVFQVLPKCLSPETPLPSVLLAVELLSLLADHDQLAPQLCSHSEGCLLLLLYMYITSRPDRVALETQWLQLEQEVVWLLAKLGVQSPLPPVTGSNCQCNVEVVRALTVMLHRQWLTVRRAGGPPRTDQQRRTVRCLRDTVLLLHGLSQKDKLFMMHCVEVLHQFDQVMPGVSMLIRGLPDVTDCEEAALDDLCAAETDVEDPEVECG
UniProt P04424, whole entry, looked up: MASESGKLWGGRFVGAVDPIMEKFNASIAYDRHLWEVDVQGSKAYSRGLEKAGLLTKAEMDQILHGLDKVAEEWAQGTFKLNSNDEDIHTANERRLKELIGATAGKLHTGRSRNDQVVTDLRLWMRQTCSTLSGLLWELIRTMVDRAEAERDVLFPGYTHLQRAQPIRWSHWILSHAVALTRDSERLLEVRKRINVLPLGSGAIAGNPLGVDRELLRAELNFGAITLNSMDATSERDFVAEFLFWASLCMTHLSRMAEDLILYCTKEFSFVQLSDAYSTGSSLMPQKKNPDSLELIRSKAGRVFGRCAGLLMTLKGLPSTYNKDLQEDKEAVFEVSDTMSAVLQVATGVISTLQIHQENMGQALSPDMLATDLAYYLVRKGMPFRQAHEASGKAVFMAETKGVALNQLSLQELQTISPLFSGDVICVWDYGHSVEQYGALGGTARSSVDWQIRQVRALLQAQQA
UniProt Q9UBB4: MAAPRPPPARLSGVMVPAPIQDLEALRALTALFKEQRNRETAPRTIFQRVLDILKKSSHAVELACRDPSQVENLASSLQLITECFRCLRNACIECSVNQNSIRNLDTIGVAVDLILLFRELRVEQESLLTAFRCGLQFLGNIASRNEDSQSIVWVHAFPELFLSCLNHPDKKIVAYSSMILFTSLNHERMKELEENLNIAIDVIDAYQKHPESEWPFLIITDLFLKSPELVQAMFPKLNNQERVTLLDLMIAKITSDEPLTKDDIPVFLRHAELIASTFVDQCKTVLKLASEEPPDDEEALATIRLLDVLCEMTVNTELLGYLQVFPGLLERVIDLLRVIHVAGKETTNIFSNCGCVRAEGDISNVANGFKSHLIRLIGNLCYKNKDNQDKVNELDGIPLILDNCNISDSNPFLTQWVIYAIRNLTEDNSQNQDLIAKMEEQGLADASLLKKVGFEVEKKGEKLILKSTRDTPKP
UniProt Q96DT6: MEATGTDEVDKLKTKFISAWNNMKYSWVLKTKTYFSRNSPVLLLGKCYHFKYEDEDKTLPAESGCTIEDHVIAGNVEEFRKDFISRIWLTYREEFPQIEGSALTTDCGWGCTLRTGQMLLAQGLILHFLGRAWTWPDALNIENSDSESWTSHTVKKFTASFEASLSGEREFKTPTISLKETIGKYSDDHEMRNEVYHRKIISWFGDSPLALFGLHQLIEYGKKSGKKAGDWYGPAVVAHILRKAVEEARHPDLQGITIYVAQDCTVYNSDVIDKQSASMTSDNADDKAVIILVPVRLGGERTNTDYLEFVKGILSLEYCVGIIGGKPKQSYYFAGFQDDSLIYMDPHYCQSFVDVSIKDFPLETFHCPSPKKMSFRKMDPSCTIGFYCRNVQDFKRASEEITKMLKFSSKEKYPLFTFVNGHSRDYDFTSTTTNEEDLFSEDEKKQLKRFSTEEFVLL
UniProt P48047: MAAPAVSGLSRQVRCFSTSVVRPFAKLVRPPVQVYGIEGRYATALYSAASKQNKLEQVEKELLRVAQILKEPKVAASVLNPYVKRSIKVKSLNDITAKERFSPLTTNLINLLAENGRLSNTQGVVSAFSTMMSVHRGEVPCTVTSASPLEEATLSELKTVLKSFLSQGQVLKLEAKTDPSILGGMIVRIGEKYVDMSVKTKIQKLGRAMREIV

The targets below were run with CC(C)C1=C2N=C(C=C(N2N=C1)NCC3=CC=CC=C3)NCCCCCCN (assay: log2 fold change, soluble protein after heating vs DMSO (PISA); higher = thermal stabilisation; K562 lysate, 10 uM; active = over 0.2 and 3.5 SD of the protein, either way, in both replicates (recomputed)).
Procedure, shortened: (§1)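 Thermal stability, expressed as log-two fold change relative to solvent controls, is given from duplicates. Crude K562 extract in PBS pH 7.4 with 1 mM MgCl2, at 1 mg/mL protein, was treated with 10 μM compound for 30 min and heated in aliquots for 3 min across 48°C-58°C. After pooling, adjustment to 0.5% NP-40 at 4°C and centrifugation at 21,000xg for 90 min, supernatant protein was measured by TMTpro 16plex LC-MS/MS with channel sums equalised.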
B3GLCT (UniProt Q6Y288) was tested, and the log2 fold change was inactive: 0.013.
ATP13A1 (UniProt Q9HD20) was tested, and the log2 fold change was inactive: 0.036.
In the case of ATP5F1C (UniProt P36542), the log2 fold change is reported as inactive: -0.029.
In the case of ATP2B4 (UniProt P23634), the log2 fold change is reported as inactive: -0.018.
With ATP5F1D (UniProt P30049) the log2 fold change was inactive: 0.015.
ATP23 (UniProt Q9Y6H3) was tested, and the log2 fold change was inactive: 0.076.
With ATXN3 isoform 1 (UniProt P54252) the log2 fold change was inactive: -0.017.
AZGP1 (UniProt P25311) was tested, and the log2 fold change was inactive: 0.409.
ASH2L (UniProt Q9UBL3) was tested, and the log2 fold change was inactive: 0.008.
In the case of ATG9A (UniProt Q7Z3C6), the log2 fold change is reported as inactive: 0.003.
In the case of ATP6V1E2 (UniProt Q96A05), the log2 fold change is reported as inactive: 0.015.
With ATP1A1 (UniProt P05023) the log2 fold change was inactive: -0.018.
With ATG101 (UniProt Q9BSB4) the log2 fold change was inactive: 0.012.
For B2M (UniProt P61769), the log2 fold change was inactive: -0.006.
For ASB6 (UniProt Q9NWX5), the log2 fold change was inactive: 0.001.
In the case of ATP11A (UniProt P98196), the log2 fold change is reported as inactive: -0.017.
With ATP6V1E1 (UniProt P36543) the log2 fold change was inactive: -0.016.
With ATP5PF isoform 2 (UniProt P18859) the log2 fold change was inactive: -0.053.
ATP13A2 (UniProt Q9NQ11) was tested, and the log2 fold change was inactive: 0.004.
ATG7 (UniProt O95352) was tested, and the log2 fold change was inactive: -0.022.
For ATRIP (UniProt Q8WXE1), the log2 fold change was inactive: -0.048.
AVL9 (UniProt Q8NBF6) was tested, and the log2 fold change was inactive: -0.01.
With ATP6V1F isoform 2 (UniProt Q16864) the log2 fold change was inactive: 0.029.
With ASL (UniProt P04424) the log2 fold change was inactive: -0.003.
With ATE1 isoform 2 (UniProt O95260) the log2 fold change was inactive: -0.016.
For ATP1A3 isoform 3 (UniProt P13637), the log2 fold change was inactive: -0.03.
With ATXN10 (UniProt Q9UBB4) the log2 fold change was inactive: -0.027.
For ATP6V1B2 (UniProt P21281), the log2 fold change was inactive: -0.005.
In the case of ATG2A isoform 3 (UniProt Q2TAZ0), the log2 fold change is reported as inactive: 0.067.
ASF1B (UniProt Q9NVP2) was tested, and the log2 fold change was inactive: -0.007.
With ATG4C (UniProt Q96DT6) the log2 fold change was inactive: -0.004.
ATP1A4 (UniProt Q13733) was tested, and the log2 fold change was inactive: -0.032.
For ASNA1 (UniProt O43681), the log2 fold change was inactive: -0.024.
ATP5PO (UniProt P48047) was tested, and the log2 fold change was inactive: -0.009.

The targets below were run with CC1=C(C(CC(=O)N1)C2=CC=C(C=C2)C(F)(F)F)C(=O)NC3=C(C=C4C(=C3)C=NN4)F in the same assay as above.
Procedure, shortened: as §1
In the case of B3GLCT (UniProt Q6Y288), the log2 fold change is reported as inactive: -0.038.
In the case of ATP13A1 (UniProt Q9HD20), the log2 fold change is reported as inactive: 0.005.
ATP5F1C (UniProt P36542) was tested, and the log2 fold change was inactive: -0.001.
In the case of ATP2B4 (UniProt P23634), the log2 fold change is reported as inactive: 0.033.
With ATP5F1D (UniProt P30049) the log2 fold change was inactive: -0.03.
For ATP23 (UniProt Q9Y6H3), the log2 fold change was inactive: 0.019.
In the case of ATXN3 isoform 1 (UniProt P54252), the log2 fold change is reported as inactive: 0.017.
With AZGP1 (UniProt P25311) the log2 fold change was inactive: 0.763.
ASH2L (UniProt Q9UBL3) was tested, and the log2 fold change was inactive: -0.007.
In the case of ATG9A (UniProt Q7Z3C6), the log2 fold change is reported as inactive: -0.022.
ATP6V1E2 (UniProt Q96A05) was tested, and the log2 fold change was inactive: -0.042.
For ATP1A1 (UniProt P05023), the log2 fold change was inactive: 0.
In the case of ATG101 (UniProt Q9BSB4), the log2 fold change is reported as inactive: 0.048.
B2M (UniProt P61769) was tested, and the log2 fold change was inactive: 0.277.
With ASB6 (UniProt Q9NWX5) the log2 fold change was inactive: -0.13.
With ATP11A (UniProt P98196) the log2 fold change was inactive: -0.019.
In the case of ATP6V1E1 (UniProt P36543), the log2 fold change is reported as inactive: -0.014.
With ATP5PF isoform 2 (UniProt P18859) the log2 fold change was inactive: -0.032.
In the case of ATP13A2 (UniProt Q9NQ11), the log2 fold change is reported as inactive: -0.053.
For ATG7 (UniProt O95352), the log2 fold change was inactive: 0.021.
ATRIP (UniProt Q8WXE1) was tested, and the log2 fold change was inactive: 0.063.
With AVL9 (UniProt Q8NBF6) the log2 fold change was inactive: 0.031.
With ATP6V1F isoform 2 (UniProt Q16864) the log2 fold change was inactive: -0.021.
For ASL (UniProt P04424), the log2 fold change was inactive: -0.003.
For ATE1 isoform 2 (UniProt O95260), the log2 fold change was inactive: 0.048.
For ATP1A3 isoform 3 (UniProt P13637), the log2 fold change was inactive: -0.056.
ATXN10 (UniProt Q9UBB4) was tested, and the log2 fold change was inactive: -0.022.
For ATP6V1B2 (UniProt P21281), the log2 fold change was inactive: 0.019.
For ATG2A isoform 3 (UniProt Q2TAZ0), the log2 fold change was inactive: 0.121.
In the case of ASF1B (UniProt Q9NVP2), the log2 fold change is reported as inactive: 0.047.
In the case of ATG4C (UniProt Q96DT6), the log2 fold change is reported as inactive: 0.001.
For ATP1A4 (UniProt Q13733), the log2 fold change was inactive: -0.01.
With ASNA1 (UniProt O43681) the log2 fold change was inactive: -0.007.
With ATP5PO (UniProt P48047) the log2 fold change was inactive: -0.006.
